This note sets out measurements from PubChem BioAssay AID1347423 (Functional Genomics Laboratory (NCATS/FGL), 2020).

Screen size: about 52,000 sequences; about 210 (0.4%) were called active.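 The calls were made as follows: active = gene whose silencing raises cell survival under the drug, median off-target-corrected z-score across its silencing RNAs 2 or more; inactive = the rest.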 This is one part of the list.

A short description of the test: Resistance to Poly (ADP-Ribose) Polymerase inhibitor: Gene Identification via Genome-wide siRNA Screen. The conditions noted are these: mouse BRCA2 R2336H ES cells, olaparib, CellTiter-Glo viability; active compounds read high. The gist of the method: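 Mouse BRCA2 R2336H ES cells were reverse-transfected with siRNA (20 nM final), treated at 48 h with 500 nM olaparib, and read by CellTiter-Glo after 72 h. Scores: MAD-based z per siRNA, median per gene, seed off-target correction.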
As to GGGCAGCUUUGAAACACUCTT against Clspn, the z-score is inactive: -1.54.
Next, GCAUGCGUUUUUCCGGUAUTT against Prkcb1: inactive: 0.219; GGCACCUAAAUUCUUGAAUTT against Hspb6: inactive: -0.361.
In the case of GCGAAAUUCUAUCCAGCCATT against Trp53, the z-score was inactive: -1.47.
Regarding GGAGUGGUACACAGACAUGTT against Srd5a2, the z-score was inactive: -0.161.
The figure for “GGAGAUUGAGCUGAAUAUUTT against 1700036D21Rik” is inactive: -2.05.
The figure for GCUAACCAUGUAAAAGCUATT against Pde3a is inactive: 1.99; for “GGACUUCAGCAAUUCCUGUTT against 4930555I21Rik” it is inactive: 1.06; for UGGAAGCCUUAUGCCGUCUTT against Gpr31c it is inactive: -0.334.
The figure for GGUCAACAUCGAUGAGCUATT against Ppp1r14a is inactive: -0.707; for GCGGACCAUCGAGAAGUUUTT against Eef1a2 it is inactive: -1.46; for GGAAGUCAUGAAGAACAGATT against Nup50 it is inactive: 0.384.
Consider CCAUUAUGGACAAUAAGAGTT against Rnf8, for which the z-score was inactive: 0.373.
The figure for GGAAACACCAAGAUUCCAGTT against Sprr3 is inactive: 0.226; for GCAGGUACUAUGGUUAAGCTT against Dnd1 it is inactive: 0.129.
The figure for CGGAUCAUUUACCCUUAUGTT against Jarid1d is inactive: 0.0684; for GGUCUUGACACUUCAAAGATT against S3-12 it is inactive: -0.0911.
Next, GGCGAGAAGAUCCUUAUCCTT against Wdr3: inactive: -0.564; CCUGAUCAACAAACCGGAUTT against Rfxank: inactive: 0.649.
With GGACAUCACCAUGACAGACTT against Pnmt, the z-score was inactive: -1.09.
With GGCCAAGCUGAUCAAUAUATT against Oprd1, the z-score was inactive: -0.0592.
Next, GGCCAGAUCUUCUAAAUUCTT against Lect2: inactive: 2.05.
The figure for “GGACCAGACAGGAAGUAUUTT against 9130017C17Rik” is inactive: -0.819; for “GGAAGUCCUUGCAUUCCUCTT against D630005C06Rik” it is inactive: 0.504; for GCUACUAAGCACCUAGAGATT against Fxr2h it is inactive: -0.748.
On to GCGUGGACGAAUGGAAACATT against Mapk13, for which the z-score is inactive: -1.07.
The figure for GGUGUUAUGCCUAUGUAUGTT against Hlxb9 is inactive: 0.248.
For the sequence GGCUACGAAACCAGAAGAUTT against Shd, the z-score is inactive: 0.117.
The figure for GGAUAGGUGGCUGAUAGUGTT against Hsd3b4 is inactive: 0.0313.
As to “GGAGACUCGGCUUCUUCAATT against A430041B07”, the z-score is inactive: 1.07.
Next, GGAGCUGGAGACUAAAGCUTT against Slc29a2: inactive: 0.193; “CCAGUAUUCGCACAUCUCGTT against A030009A06Rik”: inactive: -0.6.
Next, GGAGAGCGGGUCAUCACAUTT against Efna4: inactive: 0.369; “GCAAUACUUUGCAUGCAUUTT against 9530002B09Rik”: inactive: -0.945.
Next, AUCUCAGCGUAGAACGAAUTT against MGC5739: inactive: 0.396; GGCAUGAAUCAGUCUAUGGTT against Olfr1308: inactive: -1.48; GGUUAACAUUUUCAGUCAUTT against Itga2: inactive: 1.17.
For the sequence GGACGACUUUGAUUUCAACTT against Stat3, the z-score was inactive: 1.64.
The figure for CCUAGUCUAGCUGACUUGCTT against Spinlw1 is inactive: 2.43; for CCACCAGACUCAUAUUAACTT against LOC433501 it is inactive: -0.496; for GCUUUUGCUACAAGUGUAUTT against C80879 it is inactive: -2.32.
The figure for GAGAAUCCUCACAUAAUCATT against Tnk1 is inactive: 1.3.
Next, GCUUCCUGUUCGACGUAUCTT against Gdf7: inactive: 0.583; “CGAACACAUAUAGAUCAUCTT against 4930417M19Rik”: inactive: -1.08.
In the case of “GGAAAUGUGAAAGCUCUGUTT against B230396O12Rik”, the z-score was inactive: -1.37.
Next, GGUACACCUGGUAGAAUUGTT against Ppp1r16a: inactive: 0.914; “GGUCAUUCCGGGAUUUUUUTT against 5430411K16Rik”: inactive: -0.467.
Next, GGGAUGAGUAUGCUUAUGGTT against Rgpr: inactive: 0.176.
Next, GGCUUCUUUUUGUUCUCUGTT against Apex2: inactive: 1.05; GGUGGCCAAGGAAAAUGGUTT against Pcx: inactive: -1.02.
Consider CCUGCACUGGGAAAUAUGGTT against Polr2g, for which the z-score was inactive: 0.0195.
Take “GGUUCAAGGCAACACUGUGTT against 0710001P18Rik”: the z-score is inactive: -0.172.
With GGAGGAUUGUCCACAUGGATT against Ccl27, the z-score is inactive: -1.06.
The figure for GGUCAUCCUUUCUGAGUUGTT against Stard3 is inactive: 1.85; for GGAUGGCUUUUUAAUGAAUTT against Chst5 it is inactive: 0.703.
The figure for GGCCGCGUGUAAAAAGGUUTT against Gsg2 is inactive: -0.0887; for GCAUUUCGAGCUGAUGGUGTT against Slc36a1 it is inactive: 0.803.
Next, GGAAUUUGUCAACCGGACCTT against Siat7f: inactive: 0.899.
Turning to “GCACCUACACCGCUUACAUTT against 2610511E22Rik”, the z-score is inactive: -0.628.
The figure for GGAAUACCAGGCCUUCCUUTT against Galgt1 is inactive: 0.447.
Next, “GGAAAAAUGAGGAAGAUGATT against 6430548M08Rik”: inactive: -0.308; “GGACAAGAAAAAGAAACGATT against 2610020O08Rik”: inactive: -0.314; GGACGUGCUACAUUUGAAATT against BC066107: inactive: -1.06.
Next, GGUGUCAUGGACGGAAGCUTT against Cryzl1: inactive: -0.0922; CCAUUCAUGUGUGUUCAAUTT against Zfp472: inactive: 0.418; “GGUCCCAGUCUAUGAAAACTT against A030010B05Rik”: inactive: 1.2.
